Source: the supplement of paper PMC3334620
In all, about 33,000 sequences were measured (“E-score (-0.5 to 0.5)”: median about -0.0059, highest 2% from about 0.26 on). This is one part of the list.

target: T1, Cin5 (UniProt P40917); experiment: PBM E-score (8-mer binding enrichment) (E-score (-0.5 to 0.5)); higher = stronger / more preferred TF binding; settings: protein concentration: 100 nM; construct: GST-full length
T1 sequence: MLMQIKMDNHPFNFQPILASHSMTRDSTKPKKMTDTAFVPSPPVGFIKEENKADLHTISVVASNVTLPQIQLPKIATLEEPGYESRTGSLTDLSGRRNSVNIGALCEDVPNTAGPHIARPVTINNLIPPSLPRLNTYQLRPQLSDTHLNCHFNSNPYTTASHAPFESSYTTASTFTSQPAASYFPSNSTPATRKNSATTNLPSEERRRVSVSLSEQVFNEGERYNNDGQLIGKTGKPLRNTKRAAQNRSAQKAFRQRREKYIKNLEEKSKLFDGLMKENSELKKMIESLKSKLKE
Method: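 Universal 'all 10-mer' protein binding microarrays (Agilent AMADID 015681) probed with GST-tagged S. cerevisiae TFs (full-length or DBD) made by in vitro transcription/translation (PURExpress), about 100-200 nM. Bound TF was detected with fluorescent anti-GST. Each ungapped 8-mer (which stands for itself and its reverse complement) is scored by the PBM enrichment score (E-score), a modified Wilcoxon-Mann-Whitney statistic from -0.5 to +0.5, computed with the Universal PBM Analysis Suite. Scale: above 0.35 generally sequence-specific binding.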

Sequence	PBM E-score
GAAAACGA	-0.126
CTCAGAGC	-0.234
GAGCAGAA	-0.0414
CGCGCCTA	0.159
TGAGTAAA	0.0976
ACTTGGAT	0.118
GGATAGGA	0.115
ACAAGGCG	-0.0359
TCGCGCAA	0.0798
TTAAATAA	0.313
CGTGGAGC	-0.0401
CAGGAATG	-0.0362
ATCCGTAA	0.139
CAACACTA	0.21
AACACATT	0.173
AGTTGTCG	-0.0209
ACTATGCT	0.112
GAAATGGA	0.00728
AACTCGGG	-0.0842
ACCCGCGA	0.0354
AGATGTCG	0.0333
CATGGTCG	-0.0969
GGCAACCC	-0.189
CCTAAGAC	-0.107
AGGCGGCA	-0.224

Sequence	PBM E-score
AAGACTGC	-0.0995
TAAATAGA	-0.0988
AGCGACTG	-0.189
ACACAGCA	0.0969
CAGGAGCA	-0.0646
GCGGCCGA	-0.0155
CATCGTCC	-0.0442
ATCACACG	-0.0519
ATTCTGAA	-0.0141
CGGTTTGA	-0.0691
AGGGTTTG	0.15
CACCGCGC	-0.024
AAGTTTAG	0.0621
AGGAATCG	0.00266
CCGAGCGG	-0.118
AGCCTCAG	-0.0929
GTCATTTA	0.0111
CATGGTGC	-0.146
CGGTTTGC	0.0401
AAAGATTG	-0.0497
ACTTAGGG	-0.0988
CTGAATCC	-0.0313
GGGCGGCA	-0.214
ATTGGTGA	0.0424
CGTGGTGC	-0.314

Sequence	PBM E-score
GGATGAGA	-0.0453
CCACATGC	0.136
GAGTTCAA	-0.0274
ATTACACA	0.241
AAGATCCC	0.027
AGGCGATC	-0.298
ACCGCGAT	0.129
GCGCCAAC	0.0617
ATTAAAAC	0.185
CGCGGGAG	-0.107
TCTTCTCA	-0.0176
ACCAGAGT	-0.169
GATCCTGC	-0.081
AGAGTCCT	-0.195
TACTGCCA	0.0854
CCCGAAGC	-0.254
GACCCAGA	0.0341
CACTTATG	0.153
AGTGTACC	-0.133
TAGCCCGA	-0.127
CCGATGAA	0.0748
CTTTTTTC	-0.0397
CTGGTTCC	-0.0469
GCCGGCGC	-0.0705
ACTACGAT	0.0126

Shown with each value named: part of the list above.
ACAAGGCG
  PBM E-score = -0.0359
TCGCGCAA
  PBM E-score = 0.0798
TTAAATAA
  PBM E-score = 0.313
CGTGGAGC
  PBM E-score = -0.0401

The list goes on.

Sequence	PBM E-score
CAGGAGCC	-0.288
AGTGCGCA	0.0152
ATGCGCCG	-0.0171
AGGTTGGC	-0.141
GTGGCACA	-0.0897
ACACCTTA	0.0191
ATGCGCTC	0.0224
TGATTCCA	-0.0756
AATGCAGG	0.0785
ACATAAGA	0.3
ATTGTCGA	0.0644
CACATGTC	-0.13
ATCACGAC	0.0257
AACAATAG	0.0198
CTGATCAG	0.135
CGTATCAA	0.00249
GCACTTGA	0.0303
AGATTCTC	0.0336
CAATTCCG	0.107
GACAGACC	-0.0458
AGATGCAA	0.155
AACAGCAG	-0.00479
AACAGACA	0.32
ATGGGCGA	-0.0766
ACTATGAA	0.176

Sequence	PBM E-score
CGCAGCTC	-0.138
ATGGCAGG	0.0882
GTCCGCAA	0.0417
GGAGTCAC	-0.231
GCCTTTCA	-0.149
AGACAAGG	-0.268
CGGCAGCA	-0.107
TCGTGGCA	0.106
CGACTTCC	-0.215
GCGCTTAA	0.049
AAATACTC	0.0699
GCGTCTAA	-0.131
AGGTCGCG	-0.101
CGAGAGGC	-0.303
ACCTACCA	-0.0831
CGCTAGAA	0.0266
ATGGCGGG	0.132
ACTTATCC	0.0579
AGTTGAGG	-0.0408
GCCTGGAC	-0.275
AAGGTTTC	0.122
ACCTGCTA	-0.0196
GAGCTTGA	-0.239
CGGAACCC	0.0794
ATTGAATC	-0.0743

Sequence	PBM E-score
AGAGAAGG	-0.149
AGACTAAG	-0.0759
ATTTCACG	0.00529
CCATAACG	0.0357
GGAAAATA	0.166
GAGCCTGA	-0.0811
AACGTCTA	-0.0897
GAAGGTTA	-0.0371
GCCACTGA	-0.00298
CCCTTGAG	-0.188
ATAACTTC	0.113
AAGGAGGA	-0.146
CATTTGTC	0.0707
GTAGAGGA	-0.239
GCCAGAGA	-0.139
CATGAGGG	-0.105
ACCCTCGG	-0.295
CATACTGA	0.155
GACATACA	0.314
ACTAACTG	0.179
AACGCCGT	-0.148
AATCAGCG	0.192
GCTGTATA	0.0522
ACACTGGA	0.133
AAATTCTC	-0.0624

4 records picked at random from those above:
Sequence	PBM E-score
AGAGAAGG	-0.149
GCTGTATA	0.0522
AGACTAAG	-0.0759
GGAAAATA	0.166

Carrying on.

Sequence	PBM E-score
GCATGGGA	-0.152
GATCCCAA	-0.0221
CGACCTGA	-0.0157
CCTATTGC	-0.135
AAATACCT	0.0632
CAGCTAGA	-0.0205
AACGTTTG	-0.0719
CATAGAAC	-0.0417
GTGCTCTA	0.0613
AGATAACA	0.115
CCCGCGAA	0.101
ATCGTAAG	0.159
CGTGCATC	-0.128
ACTGCCGC	0.0471
AGTAAAAC	-0.0196
GAAGATCC	-0.178
CTTCCAAA	0.0243
CGGAGCTC	-0.269
AACAAATG	0.0424
CCTTTTAC	0.0651
GGACATAC	0.124
ACTTAGAT	0.136
